No constants are given. Whether binding was seen depends on the method and setting. Binding seen in cells or lysates may run through a third protein. Some entries that bind do so weakly or less than the wild type.

Sequences of proteins named here, by UniProt entry; tags and fusion partners are left off.
UniProt O43353: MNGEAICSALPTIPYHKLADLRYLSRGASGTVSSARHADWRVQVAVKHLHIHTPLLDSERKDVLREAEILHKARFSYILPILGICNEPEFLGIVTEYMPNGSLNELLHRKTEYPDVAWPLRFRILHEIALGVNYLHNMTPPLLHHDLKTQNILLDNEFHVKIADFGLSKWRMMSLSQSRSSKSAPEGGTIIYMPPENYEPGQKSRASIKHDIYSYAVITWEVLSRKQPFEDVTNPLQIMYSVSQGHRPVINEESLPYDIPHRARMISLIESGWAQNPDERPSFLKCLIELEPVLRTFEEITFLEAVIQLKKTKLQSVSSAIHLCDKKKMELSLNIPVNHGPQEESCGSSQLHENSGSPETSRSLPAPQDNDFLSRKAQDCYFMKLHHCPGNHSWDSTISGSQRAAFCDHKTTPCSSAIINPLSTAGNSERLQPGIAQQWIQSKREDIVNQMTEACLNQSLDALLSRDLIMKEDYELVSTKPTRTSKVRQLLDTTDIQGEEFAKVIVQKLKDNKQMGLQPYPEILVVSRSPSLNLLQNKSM
UniProt Q5S007: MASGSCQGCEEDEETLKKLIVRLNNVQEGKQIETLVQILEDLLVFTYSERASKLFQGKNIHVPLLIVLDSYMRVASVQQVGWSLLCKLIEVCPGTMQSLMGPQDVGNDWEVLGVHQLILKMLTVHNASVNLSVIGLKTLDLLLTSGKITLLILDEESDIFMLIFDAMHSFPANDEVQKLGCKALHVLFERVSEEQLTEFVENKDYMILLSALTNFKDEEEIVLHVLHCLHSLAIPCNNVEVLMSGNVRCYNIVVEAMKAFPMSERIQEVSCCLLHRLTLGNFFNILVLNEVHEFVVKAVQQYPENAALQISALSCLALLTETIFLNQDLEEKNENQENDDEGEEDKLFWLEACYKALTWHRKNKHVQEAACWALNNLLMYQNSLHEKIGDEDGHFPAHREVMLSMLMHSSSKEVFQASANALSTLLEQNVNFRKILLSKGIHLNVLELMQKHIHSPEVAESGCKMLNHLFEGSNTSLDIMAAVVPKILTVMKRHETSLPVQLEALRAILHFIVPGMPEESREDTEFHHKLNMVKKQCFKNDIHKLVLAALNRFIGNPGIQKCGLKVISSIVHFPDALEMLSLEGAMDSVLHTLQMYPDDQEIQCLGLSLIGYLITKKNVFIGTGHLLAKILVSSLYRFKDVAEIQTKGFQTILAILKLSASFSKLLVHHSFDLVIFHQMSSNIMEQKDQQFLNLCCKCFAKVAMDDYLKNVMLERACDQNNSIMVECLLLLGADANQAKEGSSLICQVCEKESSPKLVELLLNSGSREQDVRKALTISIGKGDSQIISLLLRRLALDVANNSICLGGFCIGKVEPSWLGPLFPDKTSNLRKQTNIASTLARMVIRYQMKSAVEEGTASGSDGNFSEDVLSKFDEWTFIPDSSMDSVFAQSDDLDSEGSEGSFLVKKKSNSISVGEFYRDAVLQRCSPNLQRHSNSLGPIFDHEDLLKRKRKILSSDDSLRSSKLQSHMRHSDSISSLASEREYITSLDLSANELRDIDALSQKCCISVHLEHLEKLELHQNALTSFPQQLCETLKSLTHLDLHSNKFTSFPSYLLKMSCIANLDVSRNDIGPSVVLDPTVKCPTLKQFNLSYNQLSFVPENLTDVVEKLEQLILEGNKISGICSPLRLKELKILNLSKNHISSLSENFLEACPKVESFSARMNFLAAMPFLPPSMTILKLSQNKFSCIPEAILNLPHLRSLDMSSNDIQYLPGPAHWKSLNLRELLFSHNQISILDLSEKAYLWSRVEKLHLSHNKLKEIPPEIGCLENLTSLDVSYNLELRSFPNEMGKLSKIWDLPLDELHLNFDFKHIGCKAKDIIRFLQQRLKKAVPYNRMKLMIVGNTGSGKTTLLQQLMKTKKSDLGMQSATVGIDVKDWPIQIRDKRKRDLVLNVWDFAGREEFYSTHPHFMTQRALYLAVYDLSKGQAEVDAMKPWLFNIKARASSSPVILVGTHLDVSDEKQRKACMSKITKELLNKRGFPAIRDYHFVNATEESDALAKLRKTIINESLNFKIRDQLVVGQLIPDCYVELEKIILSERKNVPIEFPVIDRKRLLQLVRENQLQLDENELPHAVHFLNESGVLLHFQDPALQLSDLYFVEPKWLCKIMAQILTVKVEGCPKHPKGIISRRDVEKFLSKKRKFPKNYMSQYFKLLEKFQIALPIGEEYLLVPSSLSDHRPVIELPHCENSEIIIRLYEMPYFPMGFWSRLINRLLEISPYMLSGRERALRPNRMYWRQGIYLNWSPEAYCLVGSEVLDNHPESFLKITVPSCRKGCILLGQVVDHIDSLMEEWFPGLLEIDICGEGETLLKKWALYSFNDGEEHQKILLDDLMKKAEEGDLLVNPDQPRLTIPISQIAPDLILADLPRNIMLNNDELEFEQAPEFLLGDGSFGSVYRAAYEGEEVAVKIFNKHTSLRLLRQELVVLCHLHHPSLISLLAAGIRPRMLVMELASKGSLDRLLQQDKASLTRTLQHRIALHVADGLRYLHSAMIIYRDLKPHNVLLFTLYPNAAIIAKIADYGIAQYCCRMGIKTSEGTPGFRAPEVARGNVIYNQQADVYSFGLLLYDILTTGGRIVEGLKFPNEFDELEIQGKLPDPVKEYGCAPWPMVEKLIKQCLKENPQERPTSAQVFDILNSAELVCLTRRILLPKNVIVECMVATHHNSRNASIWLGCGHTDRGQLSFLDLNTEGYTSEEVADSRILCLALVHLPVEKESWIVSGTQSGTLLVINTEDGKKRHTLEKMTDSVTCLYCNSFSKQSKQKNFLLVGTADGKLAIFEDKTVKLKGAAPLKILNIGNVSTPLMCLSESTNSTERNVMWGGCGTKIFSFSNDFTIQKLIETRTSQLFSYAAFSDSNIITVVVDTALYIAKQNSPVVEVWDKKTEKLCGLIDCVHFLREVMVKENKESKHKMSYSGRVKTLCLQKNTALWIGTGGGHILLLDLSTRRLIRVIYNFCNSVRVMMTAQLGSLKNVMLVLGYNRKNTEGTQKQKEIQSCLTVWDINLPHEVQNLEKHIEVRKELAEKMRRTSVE

Experiment [1] addresses Human Rip2 in pEGFP-N1 vector (GFP-tagged Rip2) (human) (UniProt O43353). Briefly: co-IP; tagged LRRK2 and Rip2 overexpressed in HEK293T cells; lysate in IP buffer (50 mM Tris-HCl pH 7.4, 150 mmol/L NaCl, 1% NP-40, 2 mmol/L EDTA); immunoprecipitated with anti-Myc or anti-GFP beads, 4°C; immunoblot.
Experiment [2] deals with Myc-tagged human LRRK2 (human) (UniProt Q5S007). The experiment is described as above.
Experiment [3] addresses endogenous LRRK2 (THP-1 cells) (human (endogenous in THP-1)) (UniProt Q5S007). Briefly: co-IP; endogenous proteins in THP-1 cells, mock-treated or treated with 5 ng/mL LPS and 10 μg/mL MDP for 4 h; immunoprecipitated with anti-LRRK2 antibody, Rip2 immunoblotted; IP buffer (50 mM Tris-HCl pH 7.4, 150 mmol/L NaCl, 1% NP-40, 2 mmol/L EDTA), 4°C. (In general: Immunoblotting shows a protein as a band on a membrane.)

With “Myc-tagged human LRRK2 (from UniProt Q5S007 1-2527)”, in experiment [1], the binding result is reported as “binds”.

Turning to “Human Rip2 in pEGFP-N1 vector (GFP-tagged Rip2) (from UniProt O43353 1-540)”, the binding result in experiment [2] is recorded as “binds”.

On to “endogenous Rip2 (THP-1 cells) (from UniProt O43353 1-540)”, for which the binding result in experiment [3] is recorded as “binds”.

(Values after PMC5233611.)
